According to publication PMC7617749:
These are yes or no findings as the source states them, for the method shown. In cells and extracts the contact can be indirect. Some binding calls cover weakened binding; strength is not graded here.

Protein sequences, listed by entry. Tags and fused reporters are not part of them. Lines headed by an entry give the natural chain unless they say otherwise; changes in a name come on top.
UniProt P16520: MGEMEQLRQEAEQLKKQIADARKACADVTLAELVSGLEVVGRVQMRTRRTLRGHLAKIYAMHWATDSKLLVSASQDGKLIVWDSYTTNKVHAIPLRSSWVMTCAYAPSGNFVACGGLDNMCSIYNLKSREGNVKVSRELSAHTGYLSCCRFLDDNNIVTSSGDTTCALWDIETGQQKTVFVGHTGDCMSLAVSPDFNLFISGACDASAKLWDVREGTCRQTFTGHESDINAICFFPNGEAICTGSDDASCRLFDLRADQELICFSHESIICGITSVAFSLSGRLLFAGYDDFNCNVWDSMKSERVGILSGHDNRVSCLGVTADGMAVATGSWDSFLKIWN
UniProt P63092: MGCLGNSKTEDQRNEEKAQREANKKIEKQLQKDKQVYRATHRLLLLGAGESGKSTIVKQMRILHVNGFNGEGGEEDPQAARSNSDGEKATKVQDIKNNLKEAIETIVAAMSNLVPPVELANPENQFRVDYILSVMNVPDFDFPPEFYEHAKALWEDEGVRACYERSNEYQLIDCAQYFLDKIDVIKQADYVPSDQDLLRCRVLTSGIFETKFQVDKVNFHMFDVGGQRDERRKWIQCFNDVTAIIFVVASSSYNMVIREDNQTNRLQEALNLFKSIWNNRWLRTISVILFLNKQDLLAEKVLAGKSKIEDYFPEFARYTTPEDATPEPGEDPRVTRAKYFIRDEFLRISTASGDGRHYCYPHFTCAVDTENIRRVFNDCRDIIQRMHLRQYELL

Target: Gβγ (Gβ3 and Gγ9-GFP2 of the TRUPATH biosensor kit) (UniProt P16520)
Experiment: FRET or BRET; TRUPATH G protein activation assay: HEK293T cells co-transfected with receptor (PTH1R; also ADRB2), Gαs-RLuc8 WT/E392K/L388R, Gβ3 and Gγ9-GFP2; loss of BRET between Gαs and Gβγ after 1 µM PTH(1-34) (10 µM isoprenaline for ADRB2); HBSS with 20 mM HEPES, 0.1% BSA, pH 7.4, coelenterazine 400a 5 µM; read every 60 s for 15 min; baseline-corrected with DMSO

Row | binding | Substance
1 | binds | Gαs-Rluc8 (wild type) (from UniProt P63092 1-394)
2 | binds | GαsE392K-Rluc8 (from UniProt P63092 1-394)
